Source: publication PMC7527721, “Beyond Toxin Transport: Novel Role of ABC Transporter for Enzymatic Machinery of Cereulide NRPS Assembly Line” (mBio, 2020)
No constants are given. Whether binding was seen depends on the method and setting. Some results given as binding are weak or reduced against the parent protein; the word gives no strength. For some of these results: Tags and fused reporters may be left off the sequences shown.

What was measured:
[1] = target: BerB, membrane protein of the ABC transporter BerAB of B. thuringiensis (BACTH fusion) (B. thuringiensis) (UniProt Q8RME0); assay: two-hybrid; BACTH (T18/T25 adenylate cyclase fusions) in E. coli BTH101, colonies on LB X-Gal/IPTG agar; 24 h at 30°C, 20 h at RT, 20 h at 18°C
[2] = target: T1, CesD, transmembrane protein of the ABC transporter CesCD (BACTH fusion) (Bacillus cereus F4810/72) (UniProt Q20CI6); assay: as above
T1 sequence: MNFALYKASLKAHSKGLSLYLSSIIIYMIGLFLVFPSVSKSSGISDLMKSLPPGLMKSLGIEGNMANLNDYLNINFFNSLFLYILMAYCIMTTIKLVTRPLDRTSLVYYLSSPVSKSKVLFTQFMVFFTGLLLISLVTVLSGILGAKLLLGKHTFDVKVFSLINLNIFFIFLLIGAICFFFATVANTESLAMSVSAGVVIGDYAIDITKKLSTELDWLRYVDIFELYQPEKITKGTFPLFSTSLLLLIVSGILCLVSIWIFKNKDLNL

[3] = target: BerB, membrane protein of the ABC transporter BerAB of B. thuringiensis (BACTH fusion) (B. thuringiensis) (UniProt Q8RME0); assay: two-hybrid; BACTH in E. coli BTH101, β-galactosidase activity (Miller assay, ONPG, 28°C) of cells from LB-IPTG plates, normalized to the negative control (T18 and T25 alone)
[4] = target: T1, CesD, transmembrane protein of the ABC transporter CesCD (BACTH fusion) (Bacillus cereus F4810/72); assay: as above
[5] = target: BerB, membrane protein of the ABC transporter BerAB of B. thuringiensis (BACTH fusion) (B. thuringiensis) (UniProt Q8RME0); assay: two-hybrid; BACTH (T18/T25 adenylate cyclase fusions) in E. coli BTH101, colonies on LB X-Gal/IPTG agar; 24 h at 30°C, 20 h at RT, 20 h at 18°C; remark: listed apart in the source
[6] = target: CesC, ATPase of the ABC transporter CesCD (BACTH fusion) (Bacillus cereus F4810/72) (UniProt Q20CI7); assay: as above
[7] = target: T1, CesD, transmembrane protein of the ABC transporter CesCD (BACTH fusion) (Bacillus cereus F4810/72); assay: as above; remark: listed apart in the source
[8] = target: BerB, membrane protein of the ABC transporter BerAB of B. thuringiensis (BACTH fusion) (B. thuringiensis) (UniProt Q8RME0); assay: two-hybrid; BACTH in E. coli BTH101, β-galactosidase activity (Miller assay, ONPG, 28°C) of cells from LB-IPTG plates, normalized to the negative control (T18 and T25 alone); remark: listed apart in the source
[9] = target: CesC, ATPase of the ABC transporter CesCD (BACTH fusion) (Bacillus cereus F4810/72) (UniProt Q20CI7); assay: as above
[10] = target: MinD from B. subtilis (BACTH fusion) (B. subtilis) (UniProt Q01464); assay: two-hybrid; BACTH (T18/T25 adenylate cyclase fusions) in E. coli BTH101, colonies on LB X-Gal/IPTG agar; 24 h at 30°C, 20 h at RT, 20 h at 18°C

Measured: binding

BerA, ATPase of the ABC transporter BerAB of B. thuringiensis (BACTH fusion) (from UniProt Q8RME1 1-297)
binds: [1] | [2] | [3] | [4]

B1: CesC, ATPase of the ABC transporter CesCD (BACTH fusion) (natural protein)
chain: MIKIEGLTKEFGNGKGIFDVTFEVKQGEVFGFLGPNGAGKSTTIRHLMGFIKPSKGAATINGFDCWKEADQVKKRVGYLPGEIAFPEEMTAYDFIRLIAGMKGMSDLGRAEEFIEKFQLDMRVHIKKMSKGMKQKLAIVAAFLHDPDILILDEPSTGLDPLMQNILVDFILEEKKCGKTILISSHIFDEIKDTADTICIIKNGKIVESGDLKTLKSAQKRYLKAYFTQEVDVELLQRSNLQIEKVENLVATILIQQNINEIMRELMKYDLINVEIMEPEIKDIFIKHYENR
notes: also called T18-CesC; CesC-T18; source: bacterial two-hybrid (BACTH) fusion, E. coli BTH101; not shown: T18 or T25 fragment of B. pertussis adenylate cyclase (several combinations tested), N-terminal or C-terminal, kept
binds: [5] | [6] | [7] | [8] | [9]

B2: MinD from B. subtilis (BACTH fusion) (protein, UniProt Q01464 1-268)
chain: MGEAIVITSGKGGVGKTTTSANLGTALAILGKRVCLVDTDIGLRNLDVVMGLENRIIYDLVDVVEGRCKMHQALVKDKRFDDLLYLMPAAQTSDKTAVAPEQIKNMVQELKQEFDYVIIDCPAGIEQGYKNAVSGADKAIVVTTPEISAVRDADRIIGLLEQEENIEPPRLVVNRIRNHLMKNGDTMDIDEIVQHLSIDLLGIVADDDEVIKASNHGEPIAMDPKNRASIAYRNIARRILGESVPLQVLEEQNKGMMAKIKSFFGVRS
binds: [10]
